Measurements: article doi:10.1101/2025.10.29.685130
Results are given in words; binding and its absence hold for the method and conditions named. In cells and extracts the contact can be indirect. A yes stands for co-enrichment or nearness to the bait. Other partners may have been found. No binding means not detected with the bait. For some of these results: Tags and fused reporters may be left off the sequences shown.

Amino acid sequences for entries named in this document (tags omitted). Residues count along the entry.
UniProt Q63844: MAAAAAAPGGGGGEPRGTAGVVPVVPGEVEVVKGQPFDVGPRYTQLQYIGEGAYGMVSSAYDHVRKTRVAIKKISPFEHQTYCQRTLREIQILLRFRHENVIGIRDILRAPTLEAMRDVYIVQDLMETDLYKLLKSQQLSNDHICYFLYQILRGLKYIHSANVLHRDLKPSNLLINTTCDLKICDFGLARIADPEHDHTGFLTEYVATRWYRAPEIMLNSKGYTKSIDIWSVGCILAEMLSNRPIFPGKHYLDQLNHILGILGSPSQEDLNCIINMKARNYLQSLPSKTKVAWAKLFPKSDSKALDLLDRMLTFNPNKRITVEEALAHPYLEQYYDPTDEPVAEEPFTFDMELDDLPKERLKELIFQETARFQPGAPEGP
UniProt P07356: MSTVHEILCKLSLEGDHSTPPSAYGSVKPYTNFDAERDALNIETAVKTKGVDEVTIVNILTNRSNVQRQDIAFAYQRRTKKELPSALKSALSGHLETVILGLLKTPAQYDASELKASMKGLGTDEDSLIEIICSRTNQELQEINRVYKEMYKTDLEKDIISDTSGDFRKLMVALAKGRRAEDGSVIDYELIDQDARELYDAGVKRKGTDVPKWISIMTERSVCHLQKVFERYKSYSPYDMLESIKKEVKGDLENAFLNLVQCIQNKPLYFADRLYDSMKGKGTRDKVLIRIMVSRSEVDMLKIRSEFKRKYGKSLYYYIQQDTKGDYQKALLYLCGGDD
UniProt Q0VE82: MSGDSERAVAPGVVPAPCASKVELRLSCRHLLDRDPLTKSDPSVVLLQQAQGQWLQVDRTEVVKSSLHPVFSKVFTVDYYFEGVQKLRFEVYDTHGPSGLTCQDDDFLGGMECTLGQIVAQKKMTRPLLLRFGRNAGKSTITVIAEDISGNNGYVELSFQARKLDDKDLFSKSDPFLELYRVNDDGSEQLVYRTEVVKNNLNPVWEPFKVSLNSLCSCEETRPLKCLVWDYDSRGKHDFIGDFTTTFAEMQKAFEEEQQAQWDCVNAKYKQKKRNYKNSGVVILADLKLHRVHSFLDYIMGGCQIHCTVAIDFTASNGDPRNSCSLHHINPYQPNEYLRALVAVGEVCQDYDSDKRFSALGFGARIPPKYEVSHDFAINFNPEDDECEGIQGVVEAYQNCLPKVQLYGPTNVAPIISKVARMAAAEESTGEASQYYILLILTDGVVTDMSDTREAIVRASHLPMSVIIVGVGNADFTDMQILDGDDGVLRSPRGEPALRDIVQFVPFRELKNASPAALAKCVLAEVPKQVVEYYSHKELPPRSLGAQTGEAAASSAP
UniProt Q02053: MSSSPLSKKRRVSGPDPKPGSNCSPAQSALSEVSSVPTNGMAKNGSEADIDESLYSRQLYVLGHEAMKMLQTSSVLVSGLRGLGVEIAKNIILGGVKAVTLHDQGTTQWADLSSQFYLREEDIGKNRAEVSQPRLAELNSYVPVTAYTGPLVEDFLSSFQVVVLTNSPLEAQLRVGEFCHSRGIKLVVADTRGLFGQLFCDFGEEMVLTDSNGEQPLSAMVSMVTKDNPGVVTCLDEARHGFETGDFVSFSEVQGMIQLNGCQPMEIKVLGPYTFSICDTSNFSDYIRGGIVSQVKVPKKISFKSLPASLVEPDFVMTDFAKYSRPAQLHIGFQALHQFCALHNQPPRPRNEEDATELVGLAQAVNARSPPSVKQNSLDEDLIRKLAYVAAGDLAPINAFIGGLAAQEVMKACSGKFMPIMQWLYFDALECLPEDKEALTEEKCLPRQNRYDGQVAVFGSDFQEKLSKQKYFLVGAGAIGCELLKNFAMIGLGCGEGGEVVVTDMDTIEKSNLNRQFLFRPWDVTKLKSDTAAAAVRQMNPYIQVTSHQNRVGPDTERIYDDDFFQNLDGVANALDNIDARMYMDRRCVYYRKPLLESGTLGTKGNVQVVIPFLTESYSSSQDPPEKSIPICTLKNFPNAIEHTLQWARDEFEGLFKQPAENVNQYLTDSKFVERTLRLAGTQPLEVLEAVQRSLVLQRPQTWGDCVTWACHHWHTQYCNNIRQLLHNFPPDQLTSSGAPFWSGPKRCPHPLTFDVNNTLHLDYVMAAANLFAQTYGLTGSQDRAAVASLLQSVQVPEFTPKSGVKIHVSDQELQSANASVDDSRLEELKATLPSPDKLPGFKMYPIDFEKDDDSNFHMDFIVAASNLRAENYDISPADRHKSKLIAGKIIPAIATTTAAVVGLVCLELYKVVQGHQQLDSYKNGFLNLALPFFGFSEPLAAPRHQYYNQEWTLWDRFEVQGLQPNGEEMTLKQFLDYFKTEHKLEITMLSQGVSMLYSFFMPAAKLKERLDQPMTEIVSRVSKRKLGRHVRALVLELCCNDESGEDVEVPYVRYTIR
UniProt P61164: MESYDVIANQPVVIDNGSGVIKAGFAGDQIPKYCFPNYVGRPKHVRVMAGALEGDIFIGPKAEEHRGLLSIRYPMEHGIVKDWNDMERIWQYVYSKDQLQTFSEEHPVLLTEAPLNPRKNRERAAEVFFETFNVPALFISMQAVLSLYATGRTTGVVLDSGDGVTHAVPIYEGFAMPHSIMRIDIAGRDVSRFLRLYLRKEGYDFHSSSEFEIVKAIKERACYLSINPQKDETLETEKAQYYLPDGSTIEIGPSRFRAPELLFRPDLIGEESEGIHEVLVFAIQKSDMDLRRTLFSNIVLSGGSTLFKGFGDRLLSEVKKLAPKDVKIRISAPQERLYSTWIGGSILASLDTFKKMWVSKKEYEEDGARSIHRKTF
UniProt Q8BVE3: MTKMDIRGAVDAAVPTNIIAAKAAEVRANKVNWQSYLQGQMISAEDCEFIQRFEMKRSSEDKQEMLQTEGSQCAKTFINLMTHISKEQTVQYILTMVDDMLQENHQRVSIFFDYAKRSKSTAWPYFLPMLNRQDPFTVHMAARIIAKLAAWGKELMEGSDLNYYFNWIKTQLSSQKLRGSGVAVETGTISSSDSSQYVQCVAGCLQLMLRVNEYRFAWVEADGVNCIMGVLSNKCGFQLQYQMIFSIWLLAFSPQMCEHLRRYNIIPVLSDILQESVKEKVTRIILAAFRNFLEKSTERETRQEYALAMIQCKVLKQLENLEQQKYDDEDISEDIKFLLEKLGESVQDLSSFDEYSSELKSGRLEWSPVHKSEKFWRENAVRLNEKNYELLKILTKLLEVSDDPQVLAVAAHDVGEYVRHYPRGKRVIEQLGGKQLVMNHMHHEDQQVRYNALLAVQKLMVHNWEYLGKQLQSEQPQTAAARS
UniProt P27773, residues 25-505: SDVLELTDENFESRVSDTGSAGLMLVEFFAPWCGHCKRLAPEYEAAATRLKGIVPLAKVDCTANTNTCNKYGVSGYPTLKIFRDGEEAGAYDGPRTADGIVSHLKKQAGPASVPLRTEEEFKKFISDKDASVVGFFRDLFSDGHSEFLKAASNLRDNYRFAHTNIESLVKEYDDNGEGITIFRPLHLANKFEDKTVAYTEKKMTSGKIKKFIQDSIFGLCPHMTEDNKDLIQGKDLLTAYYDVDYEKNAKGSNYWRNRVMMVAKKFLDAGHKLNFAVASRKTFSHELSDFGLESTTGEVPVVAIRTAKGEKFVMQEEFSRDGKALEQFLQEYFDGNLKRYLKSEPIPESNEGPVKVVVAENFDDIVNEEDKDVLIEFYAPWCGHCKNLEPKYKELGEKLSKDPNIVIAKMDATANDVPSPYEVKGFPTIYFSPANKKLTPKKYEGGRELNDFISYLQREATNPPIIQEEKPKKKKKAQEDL
UniProt P67871: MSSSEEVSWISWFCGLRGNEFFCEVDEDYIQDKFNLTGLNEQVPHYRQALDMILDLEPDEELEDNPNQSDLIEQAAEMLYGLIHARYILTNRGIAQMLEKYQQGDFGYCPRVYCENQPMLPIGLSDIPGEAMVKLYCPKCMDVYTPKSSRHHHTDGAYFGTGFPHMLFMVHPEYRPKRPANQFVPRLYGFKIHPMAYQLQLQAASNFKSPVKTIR
UniProt P10637: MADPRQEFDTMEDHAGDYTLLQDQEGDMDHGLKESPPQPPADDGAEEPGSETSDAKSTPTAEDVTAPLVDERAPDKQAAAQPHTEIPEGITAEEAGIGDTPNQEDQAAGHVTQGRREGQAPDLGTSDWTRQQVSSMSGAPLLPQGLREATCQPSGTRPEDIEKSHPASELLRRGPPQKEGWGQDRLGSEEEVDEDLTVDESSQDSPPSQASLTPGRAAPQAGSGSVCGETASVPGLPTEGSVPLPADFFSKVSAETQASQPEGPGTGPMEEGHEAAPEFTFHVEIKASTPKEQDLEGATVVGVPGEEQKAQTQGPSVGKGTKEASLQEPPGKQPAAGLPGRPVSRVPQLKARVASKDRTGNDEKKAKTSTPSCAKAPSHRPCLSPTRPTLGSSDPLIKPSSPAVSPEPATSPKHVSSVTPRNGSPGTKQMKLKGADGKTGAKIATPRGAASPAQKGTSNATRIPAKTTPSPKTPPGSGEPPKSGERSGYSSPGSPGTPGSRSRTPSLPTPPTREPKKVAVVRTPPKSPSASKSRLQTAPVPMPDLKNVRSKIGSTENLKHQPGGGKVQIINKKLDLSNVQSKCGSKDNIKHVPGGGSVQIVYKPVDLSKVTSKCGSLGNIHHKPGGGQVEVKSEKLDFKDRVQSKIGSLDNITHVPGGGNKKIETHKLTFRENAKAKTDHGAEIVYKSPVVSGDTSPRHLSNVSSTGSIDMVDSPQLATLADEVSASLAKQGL
UniProt Q5SQX6: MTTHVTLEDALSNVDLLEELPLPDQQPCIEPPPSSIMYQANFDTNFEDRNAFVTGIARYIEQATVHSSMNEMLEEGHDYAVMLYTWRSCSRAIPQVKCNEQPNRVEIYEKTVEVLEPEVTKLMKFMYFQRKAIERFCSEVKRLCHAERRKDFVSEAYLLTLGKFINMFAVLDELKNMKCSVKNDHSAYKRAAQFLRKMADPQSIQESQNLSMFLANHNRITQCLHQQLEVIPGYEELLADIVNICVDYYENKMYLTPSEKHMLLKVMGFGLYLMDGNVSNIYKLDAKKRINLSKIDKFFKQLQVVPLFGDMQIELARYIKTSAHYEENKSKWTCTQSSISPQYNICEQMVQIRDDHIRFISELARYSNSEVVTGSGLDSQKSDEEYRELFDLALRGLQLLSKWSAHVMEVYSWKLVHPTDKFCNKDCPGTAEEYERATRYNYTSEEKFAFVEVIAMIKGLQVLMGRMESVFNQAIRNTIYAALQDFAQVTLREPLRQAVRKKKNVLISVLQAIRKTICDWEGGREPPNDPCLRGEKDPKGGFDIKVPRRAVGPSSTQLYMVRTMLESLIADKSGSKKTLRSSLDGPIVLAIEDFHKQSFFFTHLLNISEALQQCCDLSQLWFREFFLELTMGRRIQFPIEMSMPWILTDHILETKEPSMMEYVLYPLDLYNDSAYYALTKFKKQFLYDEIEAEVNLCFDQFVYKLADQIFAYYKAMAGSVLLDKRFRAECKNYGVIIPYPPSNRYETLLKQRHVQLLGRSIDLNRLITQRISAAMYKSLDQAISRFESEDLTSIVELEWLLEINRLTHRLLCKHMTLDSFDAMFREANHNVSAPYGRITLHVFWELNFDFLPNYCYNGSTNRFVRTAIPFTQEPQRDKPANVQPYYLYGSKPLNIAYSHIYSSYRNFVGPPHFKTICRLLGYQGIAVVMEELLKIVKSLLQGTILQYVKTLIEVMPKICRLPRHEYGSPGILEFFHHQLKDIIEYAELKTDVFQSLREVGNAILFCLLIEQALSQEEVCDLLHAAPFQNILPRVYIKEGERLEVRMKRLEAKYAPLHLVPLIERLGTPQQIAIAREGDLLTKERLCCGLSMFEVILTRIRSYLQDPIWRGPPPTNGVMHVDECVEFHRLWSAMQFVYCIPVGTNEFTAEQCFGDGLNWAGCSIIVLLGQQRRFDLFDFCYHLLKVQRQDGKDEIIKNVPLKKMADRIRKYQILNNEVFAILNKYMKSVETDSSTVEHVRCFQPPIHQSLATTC
UniProt Q9Z140: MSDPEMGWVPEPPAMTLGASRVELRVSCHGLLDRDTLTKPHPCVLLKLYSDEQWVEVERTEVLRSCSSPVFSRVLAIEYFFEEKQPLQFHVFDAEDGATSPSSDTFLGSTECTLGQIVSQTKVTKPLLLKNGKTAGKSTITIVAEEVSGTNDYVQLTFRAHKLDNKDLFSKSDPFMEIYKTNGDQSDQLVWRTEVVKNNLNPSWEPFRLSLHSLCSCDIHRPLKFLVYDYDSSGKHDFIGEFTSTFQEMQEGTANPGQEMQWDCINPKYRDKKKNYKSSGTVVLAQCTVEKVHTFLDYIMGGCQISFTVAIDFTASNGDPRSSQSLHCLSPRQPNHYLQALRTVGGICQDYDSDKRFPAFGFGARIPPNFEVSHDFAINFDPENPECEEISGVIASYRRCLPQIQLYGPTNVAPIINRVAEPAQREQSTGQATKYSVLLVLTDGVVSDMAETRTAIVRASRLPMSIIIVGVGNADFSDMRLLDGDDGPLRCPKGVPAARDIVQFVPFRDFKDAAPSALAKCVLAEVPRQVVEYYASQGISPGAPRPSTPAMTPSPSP

B1: TAG1 (protein, UniProt Q61330 31-1014)
chain: QGTPATFGPVFEEQPVGLLFPEESAEDQVTLACRARASPPATYRWKMNGTEMNLEPGSRHQLMGGNLVIMSPTKAQDAGVYQCLASNPVGTVVSKEAVLRFGFLQEFSKEERDPVKTHEGWGVMLPCNPPAHYPGLSYRWLLNEFPNFIPTDGRHFVSQTTGNLYIARTNASDLGNYSCLATSHLDFSTKSVFSKFAQLNLAAEDPRLFAPSIKARFPPETYALVGQQVTLECFAFGNPVPRIKWRKVDGSLSPQWGTAEPTLQIPSVSFEDEGTYECEAENSKGRDTVQGRIIVQAQPEWLKVISDTEADIGSNLRWGCAAAGKPRPMVRWLRNGEPLASQNRVEVLAGDLRFSKLNLEDSGMYQCVAENKHGTIYASAELAVQALAPDFRQNPVRRLIPAARGGEISIPCQPRAAPKATILWSKGTEILGNSTRVTVTLDGTLIIRNISRSDEGKYTCFAENFMGKANSTGILSVRDATKITLAPSSADINVGDNLTLQCHASHDPTMDLTFTWTLDDFPVDFDKPGGHYRRASVKETIGDLTILNAQLRHGGTYTCMAQTVVDGASKEATVLVRGPPGPPGGVVVRDIGDTTVQLSWSRGFDNHSPIAKYTLQARTPPSGKWKQVRTNPVNIEGNAETAQVLGLMPWMDYEFRVSASNILGTGEPSGPSSRIRTKEAVPSVAPSGLSGGGGAPGELTINWTPMSREYQNGDGFGYLLSFRRQGSSSWQTARVPGADTQYFVYSNDSIHPYTPFEVKIRSYNRRGDGPESLTAIVYSAEEEPKVAPAKVWAKGSSSSEMNVSWEPVLQDMNGILLGYEIRYWKAGDKEAAADRVRTAGLDSSARVTGLYPNTKYHVTVRAYNRAGTGPASPSADAMTMKPPPRRPPGNISWTFSSSSLSLKWDPVVPLRNESTVTGYKMLYQNDLQPTPMLHLTSKNWIEIPVPEDIGHALVQIRTTGPGGDGIPAEVHIVRNGGTSMMVES

Each molecule was assayed against phosphoY458 Kv1.2 (mouse) (UniProt P63141) (assay: affinity purification with mass spectrometry).
In the case of B1, the binding is reported as “no binding”.

Molecular target: phosphoY458 Kv1.2 (mouse) (UniProt P63141)
Assay: affinity purification with mass spectrometry
Remark: another data set of the same source
For “mitogen-activated protein kinase 3 (from UniProt Q63844 1-380) (enzyme)”, the binding was “binds”.
For annexin A2 (from UniProt P07356 1-339), the binding was “no binding”.
In the case of “serine/threonine-protein phosphatase 2B catalytic subunit alpha (from UniProt P63328 1-521) (enzyme)”, the binding is reported as “binds”.
With SCRIB (from UniProt Q80U72 1-1665) the binding was “no binding”.
With copine 7 (from UniProt Q0VE82 1-557) the binding was “binds”.
With Kv1.1 (from UniProt P16388 1-495) the binding was “binds”.
“ubiquitin activation E1 enzyme UBA1 (from UniProt Q02053 1-1058)” was tested, and the binding was “binds”.
For “actin related protein 1a (from UniProt P61164 1-376)”, the binding was “binds”.
MAP1b (from UniProt P14873 1-2464) was tested, and the binding was “binds”.
For “ATP6V1H subunit (from UniProt Q8BVE3 1-483)”, the binding was “binds”.
With MAP6 (from UniProt Q7TSJ2 1-906) the binding was “binds”.
For PDIA3 (from UniProt P27773 25-505), the binding was “binds”.
With “casein kinase II subunit beta (from UniProt P67871 1-215)” the binding was “binds”.
MAP1a (from UniProt Q9QYR6 1-2776) was tested, and the binding was “binds”.
With tau (from UniProt P10637 1-733) the binding was “binds”.
“MAP1 light chain 3a (from UniProt Q91VR7 1-121)” was tested, and the binding was “binds”.
In the case of septin 3 (from UniProt Q9Z1S5 1-350), the binding is reported as “no binding”.
“valosin-containing protein (from UniProt Q01853 1-806)” was tested, and the binding was “binds”.
For DLG1 (from UniProt Q811D0 1-905), the binding was “no binding”.
With Cyfip2 (from UniProt Q5SQX6 1-1253) the binding was “binds”.
With MAP4 (from UniProt P27546 1-1125) the binding was “binds”.
In the case of copine 6 (from UniProt Q9Z140 1-557), the binding is reported as “no binding”.
“cyclin-dependent-like kinase 5 (from UniProt P49615 1-292) (enzyme)” was tested, and the binding was “binds”.
With 14-3-3 ε (from UniProt P62259 1-255) the binding was “no binding”.
